Measured values published in PubChem BioAssay AID540256 (National Center for Advancing Translational Sciences (NCATS), 2011).
The campaign covered roughly 300,000 compounds. About 3,700 (1.2%) were called active. The shares of active, inactive and inconclusive entries below differ from those in the screen. The call rests on the fitted dose curve; tested in HEK293 cells. Where the call is inconclusive, the potency comes from a doubtful curve fit.

Assay: qHTS for Inhibitors of binding or entry into cells for Lassa Virus; further: nearly all actives have a fitted effect of over 50% in size
Details: Lassa virus pseudotype entry inhibition, cell reporter; series mostly up to 37.9 µM
Potency means the concentration at half of the fitted maximal effect.

**Q.** For `Cc1onc(-c2ccccc2)c1C(=O)NC(=S)NNC(=O)c1ccc(O)cc1O`, which Potency is on record?
**A.** The Potency was active: 2.51 µM.

**Q.** For `COc1ccc(C(=O)Nc2ccc3[nH]c(-c4cccc(OC)c4)cc(=O)c3c2)cc1`, which Potency is on record?
**A.** The Potency was inconclusive: 0.82 µM [inhibitor, full curve, poor fit].

**Q.** With `Cc1cccc(/C=C/c2ccccc2)n1` as the molecule, how does the Potency read?
**A.** The Potency was inconclusive: 3.66 µM [activator, full curve, poor fit].

**Q.** With `NC(=O)CSc1nnc2n(-c3ccccc3)c(=O)c3c4c(sc3n12)CCCCC4` as the molecule, how does the Potency read?
**A.** Its Potency is inconclusive: 12.6 µM [activator, partial curve, poor fit].

**Q.** For `O=C(Cn1ccc2ccccc2c1=O)NCCC(=O)Nc1cccc(Cl)c1`, which Potency is on record?
**A.** The Potency was inconclusive: 3.16 µM [inhibitor, single point].

**Q.** For `CN1CCN(c2ccc(NC(=O)c3ccc(-c4ccc(Cl)cc4)o3)cc2)CC1`, which Potency is on record?
**A.** Its Potency is inconclusive: 35.5 µM [inhibitor, single point].

**Q.** For `COc1ccc(NC(=O)c2cc(-c3cc(OC)c(OC)c(OC)c3)nc3ccccc23)cc1OC`, which Potency is on record?
**A.** The Potency was inconclusive: 5.62 µM [inhibitor, full curve, poor fit].

**Q.** Which Potency does the source give for `O=C(NC(Cc1c[nH]c2ccccc12)C(=O)N/N=C/c1ccc(Br)cc1)c1cccs1` (stereo not given) here?
**A.** Its Potency is inconclusive: 20 µM [inhibitor, partial curve, poor fit].

**Q.** For `O=c1[nH]c2ccccc2nc1C(F)(F)F`, which Potency is on record?
**A.** Its Potency is “inactive”.

**Q.** With `Cc1cc(C)n2nc(C(=O)NC(c3ccccc3)c3ccccc3)nc2n1` as the molecule, how does the Potency read?
**A.** The Potency was inconclusive: 35.5 µM [inhibitor, single point].

**Q.** With `CSc1ccc(CNC2CN3CCC2CC3)cc1` (stereo not given) as the molecule, how does the Potency read?
**A.** The Potency was “inactive”.

**Q.** For `O=C(CSC1=NCCS1)Nc1ccc2ccccc2c1`, which Potency is on record?
**A.** The Potency was “inactive”.

**Q.** With `O=C(NCC(c1cccnc1)N1CCc2ccccc21)c1ccccc1Br` (stereo not given) as the molecule, how does the Potency read?
**A.** The Potency was “inactive”.

**Q.** For `CCOc1ccc(CCNC(=O)c2cccc(S(=O)(=O)N3CCCCC3)c2)cc1OCC`, which Potency is on record?
**A.** The Potency was “inactive”.

**Q.** Which Potency does the source give for `N/C(=N\OC(=O)C(c1ccccc1)c1ccccc1)c1ccncc1` here?
**A.** The Potency was inconclusive: 7.94 µM [inhibitor, partial curve, poor fit].

**Q.** With `CC(=O)c1ccc(NC(=O)c2ccc(CSc3ccccc3)o2)cc1` as the molecule, how does the Potency read?
**A.** The Potency was inconclusive: 25.9 µM [inhibitor, partial curve, poor fit].

**Q.** Which Potency does the source give for `O=C(Nc1ccc(-c2noc(-c3cccs3)n2)cc1)c1cccnc1` here?
**A.** The Potency was inconclusive: 35.5 µM [inhibitor, single point].

**Q.** For `CCOc1ccccc1NC(=O)CSc1nc2ccccc2c2nc(CCn3cncc3C)nn12`, which Potency is on record?
**A.** The Potency was inconclusive: 11.2 µM [inhibitor, single point].

**Q.** For `Cc1ccc(N2CCN(c3nc4ccc(C)cc4n4nnnc34)CC2)c(C)c1`, which Potency is on record?
**A.** The Potency was inconclusive: 3.98 µM [activator, partial curve, poor fit].

**Q.** With `CSc1ncc(Cl)c(C(=O)Nc2ccccc2Cl)n1` as the molecule, how does the Potency read?
**A.** Its Potency is “inactive”.

**Q.** For `NC(=S)N1N=C(c2ccccc2)CC1=O`, which Potency is on record?
**A.** The Potency was “inactive”.

**Q.** With `O=C(NCCN1CCOCC1)c1cc(-c2ccccc2Cl)on1` as the molecule, how does the Potency read?
**A.** The Potency was “inactive”.

**Q.** Which Potency does the source give for `CSc1ncnc2[nH]ccc12` here?
**A.** Its Potency is inconclusive: 0.562 µM [inhibitor, full curve, poor fit].

**Q.** For `CCCCC(=O)Nc1cccc(-c2nc3ncccc3o2)c1`, which Potency is on record?
**A.** Its Potency is “inactive”.

**Q.** Which Potency does the source give for `CCOC(=O)c1ccc(NC(=O)CC2S/C(=N/N=C/c3c[nH]c4ccccc34)NC2=O)cc1` (stereo not given) here?
**A.** The Potency was inconclusive: 15.8 µM [inhibitor, partial curve, poor fit].

**Q.** For `CC1CCCC(C)N1C(=O)C1CC(c2ccc(F)cc2)=NO1` (stereo not given), which Potency is on record?
**A.** Its Potency is “inactive”.

**Q.** Which Potency does the source give for `COC(=O)/C=C1/N/C(=N\c2nc(C)cc(C)n2)N(c2cccc(C)c2)C1=O` here?
**A.** The Potency was inconclusive: 0.651 µM [inhibitor, partial curve, poor fit].

**Q.** Which Potency does the source give for `COc1cc(CNCc2ccccn2)ccc1OCc1c(Cl)cccc1Cl` here?
**A.** The Potency was inconclusive: 29.1 µM [inhibitor, single point].

**Q.** Which Potency does the source give for `O=C(CCn1c(=O)oc2ccccc21)Nc1ccccc1` here?
**A.** The Potency was “inactive”.

**Q.** Which Potency does the source give for `Cc1ccc(S(=O)(=O)N(C)CC(=O)N2CCN(Cc3ccc4c(c3)OCO4)CC2)cc1` here?
**A.** Its Potency is inconclusive: 35.5 µM [inhibitor, single point].

**Q.** Which Potency does the source give for `Oc1c(C(c2ccccc2)N2CCN(Cc3ccccc3)CC2)sc2nc(-c3ccco3)nn12` (stereo not given) here?
**A.** The Potency was “inactive”.

**Q.** With `CC(C)C/C(O)=C/c1nc2cc(Cl)ccc2oc1=O` as the molecule, how does the Potency read?
**A.** Its Potency is inconclusive: 11.2 µM [inhibitor, partial curve, poor fit].

**Q.** For `CC(=O)c1sc(NC(=O)CCS(=O)(=O)c2ccc(Cl)cc2)nc1C`, which Potency is on record?
**A.** Its Potency is inconclusive: 28.2 µM [inhibitor, single point].

**Q.** With `COc1ccccc1CNC(=O)C(=O)NCC(c1cccs1)S(=O)(=O)c1ccc(F)cc1` (stereo not given) as the molecule, how does the Potency read?
**A.** Its Potency is inconclusive: 35.5 µM [inhibitor, single point].

**Q.** For `CC1=C(C(=O)OCC2CCCCC2)C(c2ccc(F)cc2F)CC(=O)N1` (stereo not given), which Potency is on record?
**A.** Its Potency is “inactive”.

**Q.** With `COc1ccc2[nH]c(=O)c(CN(C(=O)c3cccnc3)c3ccccc3)cc2c1` as the molecule, how does the Potency read?
**A.** The Potency was “inactive”.

**Q.** For `COC(=O)c1nnn(CC(=O)Nc2cccc(Cl)c2C)c1C(=O)OC`, which Potency is on record?
**A.** The Potency was inconclusive: 0.891 µM [activator, partial curve, poor fit].

**Q.** With `CCOC(=O)c1c(-c2ccccc2)[nH]c2ccc(O)cc12` as the molecule, how does the Potency read?
**A.** The Potency was “inactive”.

**Q.** With `CCOC(=O)c1ccc(NC(=S)N(CCN(C)C)Cc2cccs2)cc1` as the molecule, how does the Potency read?
**A.** The Potency was inconclusive: 1.26 µM [inhibitor, partial curve, poor fit].

**Q.** For `Cc1csc2nc(COC(=O)c3ccc(NC(=O)COc4ccccc4F)cc3)cc(=O)n12`, which Potency is on record?
**A.** The Potency was inconclusive: 35.5 µM [inhibitor, single point].

**Q.** Which Potency does the source give for `C/C(=N\NC(=O)c1cc2ccccc2cc1O)c1cccs1` here?
**A.** Its Potency is inconclusive: 10 µM [inhibitor, partial curve, poor fit].

**Q.** Which Potency does the source give for `Brc1ccc(-c2nc(-c3ccccc3)no2)o1` here?
**A.** Its Potency is inconclusive: 29.1 µM [inhibitor, single point].

**Q.** With `Cc1ccc(-c2cc(C(=O)N3CC(C)CC(C)C3)c3ccccc3n2)o1` (stereo not given) as the molecule, how does the Potency read?
**A.** The Potency was inconclusive: 35.5 µM [inhibitor, single point].

**Q.** With `Cc1cc(/C=C2\SC(N)=NC2=O)c(C)n1-c1ccc(F)cc1` as the molecule, how does the Potency read?
**A.** Its Potency is “inactive”.

**Q.** Which Potency does the source give for `COC(=O)c1cnn(C(=O)c2cc(OC)ccc2Br)c1N` here?
**A.** Its Potency is inconclusive: 0.146 µM [inhibitor, full curve, poor fit].

**Q.** For `Cn1c(Cl)c(/C=N/OC(=O)c2ccc(Cl)cc2)c2ccccc21`, which Potency is on record?
**A.** Its Potency is inconclusive: 39.8 µM [activator, partial curve, poor fit].

**Q.** Which Potency does the source give for `O=C(CCl)Nc1ccc(S(=O)(=O)Nc2nccs2)cc1` here?
**A.** Its Potency is inconclusive: 20 µM [inhibitor, partial curve, poor fit].

**Q.** Which Potency does the source give for `COc1ccc(CNC(=O)Cn2c(SCC(=O)N(C)c3ccccc3)nc3ccccc32)cc1` here?
**A.** The Potency was inconclusive: 15.8 µM [inhibitor, single point].

**Q.** For `CC(NS(=O)(=O)c1ccc(OCC(=O)Nc2cccc([N+](=O)[O-])c2)cc1)c1ccccc1` (stereo not given), which Potency is on record?
**A.** The Potency was inconclusive: 35.5 µM [inhibitor, single point].

**Q.** For `CC(Oc1ccccc1)C(=O)NC1=NCCS1` (stereo not given), which Potency is on record?
**A.** The Potency was inconclusive: 3.55 µM [inhibitor, partial curve].

**Q.** Which Potency does the source give for `CC(C)CCC(O)(CCC(C)C)C(=O)NNc1ccccc1` here?
**A.** The Potency was inconclusive: 5.62 µM [activator, single point].

**Q.** For `O=C(O)c1ccccc1OCCOc1ccccc1`, which Potency is on record?
**A.** Its Potency is “inactive”.

**Q.** For `COc1cccc(N(C(=O)c2snc(C(N)=O)c2N)C(C(=O)NCC2CCCO2)c2cccs2)c1` (stereo not given), which Potency is on record?
**A.** Its Potency is “inactive”.

**Q.** For `c1csc(-c2nnc(COc3ccc4c(c3)OCO4)o2)c1`, which Potency is on record?
**A.** Its Potency is inconclusive: 4.47 µM [activator, full curve, poor fit].

**Q.** With `CC(C)=N/N=C(/c1ccc([N+](=O)[O-])cc1)C12CN3CN(CN(C3)C1)C2` as the molecule, how does the Potency read?
**A.** Its Potency is “inactive”.

**Q.** Which Potency does the source give for `CCCCNC(=O)C1CCN(S(=O)(=O)c2cc(Br)cc3c2N(C(=O)CC)CC3)CC1` here?
**A.** Its Potency is “inactive”.

**Q.** Which Potency does the source give for `Cc1cc(C)n(-c2ccc(C(=O)OCC(=O)NC(c3ccccc3)c3ccccc3)cc2)n1` here?
**A.** Its Potency is inconclusive: 12.6 µM [inhibitor, single point].

**Q.** Which Potency does the source give for `CC(C)COc1ccc(/C(O)=C2/C(=O)C(=O)N(CCN(C)C)C2c2ccncc2)cc1` (stereo not given) here?
**A.** Its Potency is “inactive”.

**Q.** With `Cc1cccc(C)c1NC(=O)CSc1nnc(Cc2ccccc2)o1` as the molecule, how does the Potency read?
**A.** Its Potency is “inactive”.

**Q.** For `O=[N+]([O-])c1ccccc1S(=O)(=O)N/C(=N/S(=O)(=O)c1ccccc1)c1ccccc1`, which Potency is on record?
**A.** The Potency was “inactive”.

**Q.** Which Potency does the source give for `COc1ccc(N=N/C(=C\O)C(=O)c2ccco2)cc1` here?
**A.** Its Potency is inconclusive: 6.31 µM [activator, single point].

**Q.** Which Potency does the source give for `COc1ccc(N2CCN(C(=O)C(CCSC)N=C3NS(=O)(=O)c4ccccc43)CC2)cc1` (stereo not given) here?
**A.** The Potency was inconclusive: 25.9 µM [activator, single point].

**Q.** With `CC1=C(C(=O)Nc2ccccc2)C(c2ccccc2)n2nc(-c3ccco3)nc2N1` (stereo not given) as the molecule, how does the Potency read?
**A.** Its Potency is “inactive”.

**Q.** With `C/C(=N/NC(=O)c1cc(-c2ccc(Br)s2)[nH]n1)c1ccco1` as the molecule, how does the Potency read?
**A.** The Potency was inconclusive: 0.891 µM [inhibitor, partial curve, poor fit].

**Q.** For `CCCCCOCC1CC(C/C(C)=N/Nc2nc(-c3ccccc3)cs2)C(=O)O1` (stereo not given), which Potency is on record?
**A.** Its Potency is “inactive”.

**Q.** For `Cc1cc(C)n(-c2ccc(C(=O)Nc3cccc(S(=O)(=O)N4CCCC4)c3)cc2)n1`, which Potency is on record?
**A.** Its Potency is inconclusive: 25.9 µM [inhibitor, single point].

**Q.** Which Potency does the source give for `O=C(COc1ccc(/C=N/NC(=O)c2cc3ccccc3o2)cc1Cl)Nc1ccccc1` here?
**A.** The Potency was active: 8.91 µM.

**Q.** For `O=S(=O)(NCC1CCCO1)c1ccc(S(=O)(=O)N(Cc2ccc(F)cc2)Cc2ccco2)cc1` (stereo not given), which Potency is on record?
**A.** Its Potency is inconclusive: 32.6 µM [inhibitor, single point].

**Q.** For `CCOc1ccc2nc(N3CCN(C(=O)CS(=O)(=O)c4ccc(F)cc4)CC3)sc2c1`, which Potency is on record?
**A.** Its Potency is inconclusive: 11.2 µM [inhibitor, single point].

**Q.** For `CCNC(=S)N(CCc1c(C)[nH]c2ccc(C)cc12)Cc1cccnc1`, which Potency is on record?
**A.** The Potency was inconclusive: 3.55 µM [inhibitor, partial curve, poor fit].
